Results: paper PMC4958304
Results are given in words; binding and its absence hold for the method and conditions named. Binding seen in cells or lysates may run through a third protein. Some results given as binding are weak or reduced against the parent protein; the word gives no strength.

The chains behind the UniProt entries cited, without tags or fusion partners.
UniProt A1Z9J1: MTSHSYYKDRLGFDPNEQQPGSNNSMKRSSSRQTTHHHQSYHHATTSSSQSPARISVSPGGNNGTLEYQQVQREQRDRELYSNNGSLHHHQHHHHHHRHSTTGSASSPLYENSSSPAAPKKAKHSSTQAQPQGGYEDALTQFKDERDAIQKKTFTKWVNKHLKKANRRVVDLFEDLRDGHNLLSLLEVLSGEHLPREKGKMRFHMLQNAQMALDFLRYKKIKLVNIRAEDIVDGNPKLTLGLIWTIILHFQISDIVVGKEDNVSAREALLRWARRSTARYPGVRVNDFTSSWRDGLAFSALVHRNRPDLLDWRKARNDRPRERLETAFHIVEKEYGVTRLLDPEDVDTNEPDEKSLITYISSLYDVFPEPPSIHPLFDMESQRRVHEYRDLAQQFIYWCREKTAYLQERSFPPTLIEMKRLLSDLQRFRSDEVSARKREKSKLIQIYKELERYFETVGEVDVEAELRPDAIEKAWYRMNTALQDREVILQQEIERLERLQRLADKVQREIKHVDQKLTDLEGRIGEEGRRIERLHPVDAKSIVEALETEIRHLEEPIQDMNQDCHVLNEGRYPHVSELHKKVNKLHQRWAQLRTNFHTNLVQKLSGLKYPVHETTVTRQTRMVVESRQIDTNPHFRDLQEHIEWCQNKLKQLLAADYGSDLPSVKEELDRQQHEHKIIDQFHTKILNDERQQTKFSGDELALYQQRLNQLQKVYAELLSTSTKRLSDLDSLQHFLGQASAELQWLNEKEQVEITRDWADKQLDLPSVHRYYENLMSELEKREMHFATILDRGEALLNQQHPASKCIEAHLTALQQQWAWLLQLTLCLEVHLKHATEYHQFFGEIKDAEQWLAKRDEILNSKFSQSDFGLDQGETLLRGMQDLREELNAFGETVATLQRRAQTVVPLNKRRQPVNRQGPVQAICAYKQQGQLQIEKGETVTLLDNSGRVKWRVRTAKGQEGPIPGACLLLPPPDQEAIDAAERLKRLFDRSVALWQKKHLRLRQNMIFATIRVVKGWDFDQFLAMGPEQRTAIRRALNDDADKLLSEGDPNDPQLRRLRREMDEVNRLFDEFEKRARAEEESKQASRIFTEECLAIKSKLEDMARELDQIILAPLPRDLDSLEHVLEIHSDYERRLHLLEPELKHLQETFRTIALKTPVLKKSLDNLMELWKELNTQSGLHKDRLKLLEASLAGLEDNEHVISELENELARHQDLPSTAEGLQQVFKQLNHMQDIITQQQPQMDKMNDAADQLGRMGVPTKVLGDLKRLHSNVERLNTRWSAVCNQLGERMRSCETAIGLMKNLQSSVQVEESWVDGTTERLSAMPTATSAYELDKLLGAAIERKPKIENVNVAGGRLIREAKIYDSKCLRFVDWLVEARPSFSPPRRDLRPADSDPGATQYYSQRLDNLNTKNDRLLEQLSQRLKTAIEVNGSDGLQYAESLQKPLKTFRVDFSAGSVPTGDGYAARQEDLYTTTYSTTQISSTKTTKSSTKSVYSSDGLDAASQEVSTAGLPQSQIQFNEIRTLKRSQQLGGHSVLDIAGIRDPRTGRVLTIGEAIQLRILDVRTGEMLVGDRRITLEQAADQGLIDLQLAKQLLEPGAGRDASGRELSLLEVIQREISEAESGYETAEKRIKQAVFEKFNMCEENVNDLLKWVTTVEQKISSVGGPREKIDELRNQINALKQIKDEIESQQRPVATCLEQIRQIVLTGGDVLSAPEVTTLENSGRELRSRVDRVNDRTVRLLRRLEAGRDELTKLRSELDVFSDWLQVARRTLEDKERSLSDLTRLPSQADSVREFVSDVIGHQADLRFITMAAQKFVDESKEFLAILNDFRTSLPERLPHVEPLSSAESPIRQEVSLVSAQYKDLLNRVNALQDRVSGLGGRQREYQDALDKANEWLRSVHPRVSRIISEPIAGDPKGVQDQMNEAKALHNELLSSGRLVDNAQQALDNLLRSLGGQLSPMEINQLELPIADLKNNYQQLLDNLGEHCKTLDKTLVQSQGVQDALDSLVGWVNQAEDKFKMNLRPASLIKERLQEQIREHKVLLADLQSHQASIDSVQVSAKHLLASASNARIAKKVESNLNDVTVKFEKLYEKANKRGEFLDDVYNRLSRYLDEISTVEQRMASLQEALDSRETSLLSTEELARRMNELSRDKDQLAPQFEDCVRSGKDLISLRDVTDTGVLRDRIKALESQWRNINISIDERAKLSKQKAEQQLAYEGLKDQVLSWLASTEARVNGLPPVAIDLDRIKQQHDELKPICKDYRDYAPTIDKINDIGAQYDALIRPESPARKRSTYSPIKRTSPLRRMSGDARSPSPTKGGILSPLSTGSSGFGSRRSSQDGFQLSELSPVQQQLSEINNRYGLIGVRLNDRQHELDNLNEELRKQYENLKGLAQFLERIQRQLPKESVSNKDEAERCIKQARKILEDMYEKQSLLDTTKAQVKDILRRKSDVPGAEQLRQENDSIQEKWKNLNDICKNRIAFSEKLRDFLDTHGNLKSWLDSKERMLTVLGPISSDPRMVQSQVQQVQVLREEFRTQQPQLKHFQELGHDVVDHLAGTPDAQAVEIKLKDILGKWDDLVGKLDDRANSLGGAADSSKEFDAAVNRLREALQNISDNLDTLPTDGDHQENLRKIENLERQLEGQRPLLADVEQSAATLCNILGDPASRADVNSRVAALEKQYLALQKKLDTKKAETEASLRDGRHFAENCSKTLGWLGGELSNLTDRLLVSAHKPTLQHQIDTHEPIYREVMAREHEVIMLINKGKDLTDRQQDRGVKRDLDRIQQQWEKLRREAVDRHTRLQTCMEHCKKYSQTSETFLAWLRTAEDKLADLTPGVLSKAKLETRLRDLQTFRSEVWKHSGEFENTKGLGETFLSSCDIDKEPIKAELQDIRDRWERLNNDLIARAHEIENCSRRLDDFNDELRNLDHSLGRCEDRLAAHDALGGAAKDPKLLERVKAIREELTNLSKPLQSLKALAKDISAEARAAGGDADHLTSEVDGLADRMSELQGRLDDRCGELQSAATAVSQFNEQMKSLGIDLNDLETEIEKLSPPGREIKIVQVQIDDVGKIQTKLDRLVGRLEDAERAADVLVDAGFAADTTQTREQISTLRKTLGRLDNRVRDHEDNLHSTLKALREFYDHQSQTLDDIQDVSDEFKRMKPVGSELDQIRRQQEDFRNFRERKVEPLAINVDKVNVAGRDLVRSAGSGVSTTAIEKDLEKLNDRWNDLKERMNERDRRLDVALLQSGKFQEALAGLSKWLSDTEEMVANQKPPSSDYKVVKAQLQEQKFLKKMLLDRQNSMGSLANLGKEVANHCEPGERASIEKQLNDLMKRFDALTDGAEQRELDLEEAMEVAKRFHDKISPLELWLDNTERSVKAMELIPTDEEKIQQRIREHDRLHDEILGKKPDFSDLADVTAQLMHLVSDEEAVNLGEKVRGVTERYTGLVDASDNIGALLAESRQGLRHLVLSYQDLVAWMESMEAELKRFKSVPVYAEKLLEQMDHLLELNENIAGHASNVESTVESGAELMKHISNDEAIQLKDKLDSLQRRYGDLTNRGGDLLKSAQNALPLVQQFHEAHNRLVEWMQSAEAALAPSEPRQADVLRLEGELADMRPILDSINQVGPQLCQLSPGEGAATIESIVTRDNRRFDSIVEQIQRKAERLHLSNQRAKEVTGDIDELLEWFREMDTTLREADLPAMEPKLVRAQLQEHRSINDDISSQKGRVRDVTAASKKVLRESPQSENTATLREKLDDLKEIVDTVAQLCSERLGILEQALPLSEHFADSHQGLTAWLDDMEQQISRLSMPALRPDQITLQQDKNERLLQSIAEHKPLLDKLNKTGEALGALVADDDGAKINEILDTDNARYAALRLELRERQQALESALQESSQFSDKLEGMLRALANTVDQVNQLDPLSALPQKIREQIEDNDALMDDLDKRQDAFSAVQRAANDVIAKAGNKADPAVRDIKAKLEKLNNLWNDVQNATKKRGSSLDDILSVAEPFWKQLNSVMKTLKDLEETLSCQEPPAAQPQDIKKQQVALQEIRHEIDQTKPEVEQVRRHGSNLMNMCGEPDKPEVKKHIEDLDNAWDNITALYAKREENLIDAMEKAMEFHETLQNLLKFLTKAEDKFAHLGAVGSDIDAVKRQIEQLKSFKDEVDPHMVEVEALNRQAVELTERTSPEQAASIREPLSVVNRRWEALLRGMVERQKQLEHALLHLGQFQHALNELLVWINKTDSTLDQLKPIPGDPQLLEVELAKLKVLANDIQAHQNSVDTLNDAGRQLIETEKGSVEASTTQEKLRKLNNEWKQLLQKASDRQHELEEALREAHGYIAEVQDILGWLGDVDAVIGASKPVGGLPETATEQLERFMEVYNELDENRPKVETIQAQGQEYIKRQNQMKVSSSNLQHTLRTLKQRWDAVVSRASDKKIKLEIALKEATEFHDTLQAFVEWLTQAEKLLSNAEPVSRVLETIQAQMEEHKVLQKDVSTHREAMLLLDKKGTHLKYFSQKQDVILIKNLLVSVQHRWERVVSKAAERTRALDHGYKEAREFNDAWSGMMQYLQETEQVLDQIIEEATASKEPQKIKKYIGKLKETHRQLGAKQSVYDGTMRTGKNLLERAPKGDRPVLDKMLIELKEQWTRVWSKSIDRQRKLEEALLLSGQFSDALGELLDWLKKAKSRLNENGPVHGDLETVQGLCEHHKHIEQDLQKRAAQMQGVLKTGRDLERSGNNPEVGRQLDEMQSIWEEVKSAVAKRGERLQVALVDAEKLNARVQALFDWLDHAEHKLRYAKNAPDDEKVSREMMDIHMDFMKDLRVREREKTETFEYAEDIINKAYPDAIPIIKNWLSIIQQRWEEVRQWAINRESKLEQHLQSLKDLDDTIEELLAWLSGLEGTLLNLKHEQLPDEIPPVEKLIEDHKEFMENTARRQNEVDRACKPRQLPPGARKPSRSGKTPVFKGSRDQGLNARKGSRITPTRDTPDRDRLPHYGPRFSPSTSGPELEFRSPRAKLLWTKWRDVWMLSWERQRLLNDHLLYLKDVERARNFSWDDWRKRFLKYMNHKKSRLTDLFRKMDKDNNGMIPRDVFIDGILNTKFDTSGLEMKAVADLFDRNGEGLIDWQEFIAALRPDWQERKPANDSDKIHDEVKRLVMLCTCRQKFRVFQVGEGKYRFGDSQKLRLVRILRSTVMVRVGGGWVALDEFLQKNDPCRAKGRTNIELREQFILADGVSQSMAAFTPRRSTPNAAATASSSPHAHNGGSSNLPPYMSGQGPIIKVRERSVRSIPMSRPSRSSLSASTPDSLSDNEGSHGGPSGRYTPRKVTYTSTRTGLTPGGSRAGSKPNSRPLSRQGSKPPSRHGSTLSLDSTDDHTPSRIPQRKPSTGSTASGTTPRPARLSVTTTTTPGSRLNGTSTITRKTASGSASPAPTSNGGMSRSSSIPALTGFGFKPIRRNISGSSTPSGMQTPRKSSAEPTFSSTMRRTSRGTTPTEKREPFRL

Key:
[1] = molecular target: Patronin–GFP (Drosophila melanogaster) (UniProt A1ZAU8); experiment: co-IP; Drosophila embryo lysates (10 mM Tris-HCl pH 7.5, 150 mM NaCl, 0.5% NP-40, 0.5 mM EDTA, phosphatase and protease inhibitors), pre-cleared, YFP- or GFP-tagged bait captured on GFP Trap-M beads; preys detected by western blot
[2] = molecular target: Shot–GFP (Drosophila melanogaster) (UniProt A1Z9J1); experiment: as above

| binding [1] | binding [2] | Substance |
| --- | --- | --- |
| binds |  | Shortstop (from UniProt A1Z9J1 1-5501) |
| binds | binds | α-Spectrin (from UniProt P13395 1-2415) |
